# Measurements from PubChem BioAssay AID504467 (National Center for Advancing Translational Sciences (NCATS), 2011).
# Among all 330,000 compounds or so, about 7,700 (2.3%) were called active. Inconclusive means that the source gave no clear call. Such entries were picked first, then a sample of the others. The call rests on the fitted dose curve; in most records, active means well fitted inhibition curve with a large enough effect; inconclusive means small, poorly fitted or top-dose-only effect, or effect the other way; inactive means flat fitted curve, though single readings scatter. Potencies beside an inconclusive call are fits to weak or partial responses and may not hold up.
# Assay: qHTS screen for small molecules that inhibit ELG1-dependent DNA repair in human embryonic kidney (HEK293T) cells expressing luciferase-tagged ELG1; further: nearly all actives have a fitted effect of over 55% in size
# Settings: HEK293T ELG1-luciferase reporter, luminescence, 16 h, DNA damage induced by 5-fluorouridine; series mostly up to 46.1 µM
# Procedure, shortened: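 Overnight (16 hr) co-exposure of 2,000 cells/well to 5-fluorouridine and compound at 37 °C preceded detection. Luciferase was quantified via ONE-Glo luminescence; loss of signal denotes inhibition.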
# Potency means the concentration at half of the fitted maximal effect.
row,Compound,Potency
1,Cc1ccc(/C=C2/SC(=S)N(CCC(=O)N3CCOCC3)C2=O)cc1,inactive
2,CCOC(=O)c1ccc(NC(=O)N2CCN(c3cccc(OC)c3)CC2)cc1,"inconclusive: 29.1 µM [inhibitor, single point]"
3,CN(CC(=O)N1CCc2ccccc21)S(=O)(=O)c1ccc(Cl)cc1,inactive
4,COc1ccccc1CNC(=O)CN1C(=O)NC(c2ccccc2)(c2ccccc2)C1=O,"inconclusive: 25.9 µM [inhibitor, single point]"
5,COc1ccccc1CN1CC(C(=O)N(C)Cc2ccc(C)o2)CCC1=O (stereo not given),inactive
6,COc1cc(/C=C/c2noc(-c3ccccc3O)n2)cc(OC)c1OC,"inconclusive: 6.51 µM [activator, partial curve]"
7,CCOC(=O)c1oc2cccc(O)c2c1CN(Cc1ccccc1)C(C)=O,"inconclusive: 29.1 µM [inhibitor, single point]"
8,CCn1c(=O)c2c(nc(SCC(=O)N3CCC(C)CC3)n2C)n(C)c1=O,inactive
9,Cc1ccc(NC(=O)CCc2nnc3ccc(N4CCC5(CC4)OCCO5)nn23)cc1F,inactive
10,Cc1nc2cc(-c3ccc(F)cc3)[nH]n2c(=O)c1C,"inconclusive: 6.51 µM [activator, partial curve]"
11,CCOc1ccccc1OCC(=O)Nc1ccc(N2CCCCC2)cc1,"inconclusive: 18.4 µM [inhibitor, single point]"
12,C[C@]12C=CC(=O)C=C1CC[C@@H]1C2[C@@H](O)C[C@@]2(C)C1CC[C@]2(O)C(=O)COC(=O)CCC(=O)O (stereo not given in full),inactive
13,Cc1ccc2nc(NC(=O)C3CSC4(C)CCC(=O)N34)sc2c1 (stereo not given),"inconclusive: 13 µM [activator, single point]"
14,COc1cc(C)c(Cl)cc1S(=O)(=O)NCc1ccncc1,"inconclusive: 1.64 µM [inhibitor, partial curve, poor fit]"
15,CCCC[C@H]1COCCS(=O)(=O)N1Cc1ccccc1F,"inconclusive: 0.461 µM [inhibitor, single point]"
16,CCCNC(=O)c1oc2ccc3c(c2c1C)C(O)CC(C)(C)O3 (stereo not given),"inconclusive: 14.6 µM [activator, partial curve]"
17,CC(C)(C)OC(=O)[C@H](Cc1ccccc1)NC(=O)c1nc[nH]c1C(=O)N[C@@H](Cc1ccccc1)C(=O)OC(C)(C)C,"inconclusive: 29.1 µM [inhibitor, single point]"
18,O=C(OCc1ccccc1Cl)C1CC(=O)N(Cc2ccco2)C1 (stereo not given),inactive
19,COc1cc([N+](=O)[O-])cc(/C=N/N(CCC#N)C(C)=O)c1O,inactive
20,COc1ccccc1-n1nnnc1SCC(=O)N1CCCC1=O,"inconclusive: 23.1 µM [activator, partial curve, poor fit]"
21,O=C(C[C@@H]1C/C=C\C[C@H](NC(=O)OCC2c3ccccc3-c3ccccc32)C(=O)OC[C@@H]2CCCN2C1=O)N[C@H](CO)Cc1ccccc1,inactive
22,CCOc1ccc(CCNC(=O)COC(=O)C2CC2)cc1OCC,"inconclusive: 4.11 µM [activator, partial curve, poor fit]"
23,Cc1ccc(CSCCNC(=O)c2ccc(N(C)S(=O)(=O)c3ccccc3)cc2)cc1,"inconclusive: 29.1 µM [inhibitor, single point]"

row,Compound,Potency
1,COc1cccc(C(=O)OCC(=O)Nc2cc(C)on2)c1OC,inactive
2,CC[C@]12c3[nH]c4ccccc4c3CCN1C(=O)C(CC(=O)NCC13CC4CC(CC(C4)C1)C3)C[C@@H]2C(=O)N1CCN(C(=O)c2ccco2)CC1 (stereo not given in full),"inconclusive: 29.1 µM [inhibitor, single point]"
3,CCCCCC1(C(=O)OCC)CC(CSC(=N)N)OC1=O (stereo not given),inactive
4,Cc1ccc(N(CC(=O)NCc2ccccc2)S(=O)(=O)c2c(C)noc2C)cc1,inactive
5,Cc1cccnc1NC(=O)c1ccc(OCc2c(C)noc2C)cc1,"inconclusive: 25.9 µM [activator, partial curve]"
6,Cc1ccc(C)n1-c1ccc(C(=O)NC2CCN(Cc3ccccc3)CC2)cc1,"inconclusive: 9.2 µM [inhibitor, partial curve]"
7,COc1ccc(-n2c(C)nc3c(cnn3-c3ccc(C)c(C)c3)c2=O)cc1,inactive
8,CC(C)(C)NC(=O)N1CCN(c2nc3ccc(Cl)cc3s2)CC1,inactive
9,COc1cc(NC(=O)c2cc(OC)c(OC)c(OC)c2)c(OC)cc1NC(=O)CN1CCCCC1,"inconclusive: 22.4 µM [inhibitor, single point]"
10,CNCc1ccccc1Sc1ccc(OC)cc1,inactive
11,CCOc1ccccc1NC(=O)C1CCCN1S(=O)(=O)c1ccccc1C(F)(F)F (stereo not given),inactive
12,CCN(CC)S(=O)(=O)c1cccc(C(=O)Nc2cc(C)cc(C)c2)c1,"inconclusive: 0.731 µM [inhibitor, partial curve, poor fit]"
13,Cc1nn2c(COc3ccc(NC(=O)c4ccccc4Cl)cc3)nnc2c2ccccc12,"inconclusive: 20.6 µM [inhibitor, single point]"
14,COc1ccc2[nH]c3c(c2c1)CCN1C(=O)C(CC(=O)NCCc2ccccn2)C[C@H](C(=O)N2CCOCC2)[C@@]31CCC1CCCC1 (stereo not given in full),inactive
15,COCCCN(C(=O)c1ccco1)c1nc(-c2cc(OC)ccc2OC)cs1,"inconclusive: 16.4 µM [inhibitor, partial curve, poor fit]"
16,Cc1ccc(OCC(=O)Oc2c(C)cccc2C)cc1,inactive
17,CC(=O)c1ccc(N2CCN(C(=O)c3ccc(OCc4c(C)noc4C)cc3)CC2)cc1,"inconclusive: 29.1 µM [inhibitor, single point]"
18,Cn1c(CNC(=O)CNC(=O)c2cccc(F)c2)cc(=O)n(C)c1=O,"inconclusive: 5.17 µM [activator, partial curve, poor fit]"
19,Cc1ccccc1CNC(=O)CCC(=O)N1Cc2ccccc2Oc2ncccc21,inactive
20,Cc1sc2nc(SCC(=O)c3cc(C)n(CC4CCCO4)c3C)n(C(C)C)c(=O)c2c1C (stereo not given),inactive
21,COc1ccccc1C(=O)Oc1ccc(C(C)C)cc1,"inconclusive: 20.6 µM [activator, single point]"
22,COc1ccc(N2CCN(C(=O)Cc3nn(C)c(=O)c4ccccc34)CC2)cc1,"inconclusive: 14.6 µM [inhibitor, single point]"

# Exported as tab-separated lines: entries from further up
row	Compound	Potency
6	Cc1ccc(C)n1-c1ccc(C(=O)NC2CCN(Cc3ccccc3)CC2)cc1	inconclusive: 9.2 µM [inhibitor, partial curve]
7	COc1ccc(-n2c(C)nc3c(cnn3-c3ccc(C)c(C)c3)c2=O)cc1	inactive
8	CC(C)(C)NC(=O)N1CCN(c2nc3ccc(Cl)cc3s2)CC1	inactive
9	COc1cc(NC(=O)c2cc(OC)c(OC)c(OC)c2)c(OC)cc1NC(=O)CN1CCCCC1	inconclusive: 22.4 µM [inhibitor, single point]
10	CNCc1ccccc1Sc1ccc(OC)cc1	inactive
11	CCOc1ccccc1NC(=O)C1CCCN1S(=O)(=O)c1ccccc1C(F)(F)F (stereo not given)	inactive
12	CCN(CC)S(=O)(=O)c1cccc(C(=O)Nc2cc(C)cc(C)c2)c1	inconclusive: 0.731 µM [inhibitor, partial curve, poor fit]
13	Cc1nn2c(COc3ccc(NC(=O)c4ccccc4Cl)cc3)nnc2c2ccccc12	inconclusive: 20.6 µM [inhibitor, single point]
14	COc1ccc2[nH]c3c(c2c1)CCN1C(=O)C(CC(=O)NCCc2ccccn2)C[C@H](C(=O)N2CCOCC2)[C@@]31CCC1CCCC1 (stereo not given in full)	inactive
15	COCCCN(C(=O)c1ccco1)c1nc(-c2cc(OC)ccc2OC)cs1	inconclusive: 16.4 µM [inhibitor, partial curve, poor fit]
16	Cc1ccc(OCC(=O)Oc2c(C)cccc2C)cc1	inactive
17	CC(=O)c1ccc(N2CCN(C(=O)c3ccc(OCc4c(C)noc4C)cc3)CC2)cc1	inconclusive: 29.1 µM [inhibitor, single point]
